Assay results reported in PMC3078934.
These are yes or no findings as the source states them, for the method shown. Binding seen in cells or lysates may run through a third protein.

Sequences of proteins named here, by UniProt entry; tags and fusion partners are left off. Residues count along the entry.
UniProt P35968, residues 20-1356: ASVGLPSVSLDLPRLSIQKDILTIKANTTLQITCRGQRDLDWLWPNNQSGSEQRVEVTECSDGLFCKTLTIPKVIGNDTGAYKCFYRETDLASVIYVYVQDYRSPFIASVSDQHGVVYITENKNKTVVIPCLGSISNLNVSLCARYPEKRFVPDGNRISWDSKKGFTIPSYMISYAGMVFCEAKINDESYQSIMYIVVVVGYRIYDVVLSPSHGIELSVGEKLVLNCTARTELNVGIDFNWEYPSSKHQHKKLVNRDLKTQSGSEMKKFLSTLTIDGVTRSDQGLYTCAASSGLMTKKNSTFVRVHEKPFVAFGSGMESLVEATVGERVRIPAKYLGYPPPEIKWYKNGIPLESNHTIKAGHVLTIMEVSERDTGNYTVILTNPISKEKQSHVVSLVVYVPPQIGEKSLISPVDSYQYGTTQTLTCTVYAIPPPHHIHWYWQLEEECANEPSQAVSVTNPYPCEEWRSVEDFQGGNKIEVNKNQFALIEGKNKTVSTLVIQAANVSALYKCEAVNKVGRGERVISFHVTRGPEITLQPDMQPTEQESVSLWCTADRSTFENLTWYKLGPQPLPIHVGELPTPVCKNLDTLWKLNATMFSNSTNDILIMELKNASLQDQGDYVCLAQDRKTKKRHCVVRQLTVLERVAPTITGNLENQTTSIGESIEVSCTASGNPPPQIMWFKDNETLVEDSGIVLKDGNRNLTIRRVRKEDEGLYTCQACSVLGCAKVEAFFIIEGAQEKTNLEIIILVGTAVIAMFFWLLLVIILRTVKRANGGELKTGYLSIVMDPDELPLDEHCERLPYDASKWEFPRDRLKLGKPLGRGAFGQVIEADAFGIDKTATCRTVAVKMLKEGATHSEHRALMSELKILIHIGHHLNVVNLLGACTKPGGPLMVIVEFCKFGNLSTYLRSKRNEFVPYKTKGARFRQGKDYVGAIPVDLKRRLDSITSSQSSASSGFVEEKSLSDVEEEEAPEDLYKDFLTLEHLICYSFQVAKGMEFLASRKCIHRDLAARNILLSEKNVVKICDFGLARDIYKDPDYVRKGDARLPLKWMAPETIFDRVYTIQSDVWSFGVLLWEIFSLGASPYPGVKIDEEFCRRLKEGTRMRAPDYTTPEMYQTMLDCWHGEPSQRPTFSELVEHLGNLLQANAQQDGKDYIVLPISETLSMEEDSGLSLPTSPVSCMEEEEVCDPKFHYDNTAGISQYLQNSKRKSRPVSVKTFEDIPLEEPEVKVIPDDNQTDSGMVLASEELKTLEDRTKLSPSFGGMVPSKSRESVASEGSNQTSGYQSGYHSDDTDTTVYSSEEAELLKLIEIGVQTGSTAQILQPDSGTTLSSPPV
UniProt P48357, residues 22-1165: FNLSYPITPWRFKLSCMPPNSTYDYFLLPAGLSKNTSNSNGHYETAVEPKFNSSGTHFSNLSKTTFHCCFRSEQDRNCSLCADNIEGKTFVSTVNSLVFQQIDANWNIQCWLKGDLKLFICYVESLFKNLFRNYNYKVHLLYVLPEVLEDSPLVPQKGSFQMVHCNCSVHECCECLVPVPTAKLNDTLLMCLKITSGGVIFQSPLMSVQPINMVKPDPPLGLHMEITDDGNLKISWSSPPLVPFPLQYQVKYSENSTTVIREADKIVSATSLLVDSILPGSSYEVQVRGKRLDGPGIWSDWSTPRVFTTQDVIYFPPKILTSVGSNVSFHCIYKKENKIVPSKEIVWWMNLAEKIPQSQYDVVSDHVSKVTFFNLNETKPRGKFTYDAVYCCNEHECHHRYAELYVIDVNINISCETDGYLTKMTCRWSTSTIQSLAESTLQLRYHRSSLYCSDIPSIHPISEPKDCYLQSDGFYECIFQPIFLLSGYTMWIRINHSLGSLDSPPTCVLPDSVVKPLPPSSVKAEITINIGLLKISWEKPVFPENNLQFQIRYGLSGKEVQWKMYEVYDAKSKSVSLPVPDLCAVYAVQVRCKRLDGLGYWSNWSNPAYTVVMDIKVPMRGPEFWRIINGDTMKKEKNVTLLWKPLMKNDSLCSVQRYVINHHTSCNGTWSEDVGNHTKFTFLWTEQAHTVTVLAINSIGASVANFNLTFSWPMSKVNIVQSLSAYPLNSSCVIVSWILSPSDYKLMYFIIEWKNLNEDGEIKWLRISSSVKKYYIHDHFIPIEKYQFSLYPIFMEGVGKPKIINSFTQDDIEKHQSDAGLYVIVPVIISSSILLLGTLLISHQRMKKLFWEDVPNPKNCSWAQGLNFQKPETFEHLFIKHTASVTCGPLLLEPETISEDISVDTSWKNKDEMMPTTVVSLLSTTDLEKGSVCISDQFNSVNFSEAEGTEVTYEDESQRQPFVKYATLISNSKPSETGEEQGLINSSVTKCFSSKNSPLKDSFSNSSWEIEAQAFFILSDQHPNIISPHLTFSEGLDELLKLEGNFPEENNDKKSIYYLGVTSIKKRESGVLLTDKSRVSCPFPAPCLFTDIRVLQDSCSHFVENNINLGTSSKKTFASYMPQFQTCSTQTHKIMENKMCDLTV

Target: vascular endothelial growth factor receptor 2 (VEGFR2) (human (endogenous in HUVEC)) (UniProt P35968)
Experiment: co-IP; VEGFR2 immunoprecipitated (VEGFR2 antibody, protein A-sepharose, 4°C overnight) from lysates (1% Triton, pH 7.4) of serum-starved HUVEC treated 5 min with vehicle, leptin (1 ng/mL) or VEGF (25 ng/mL); blots probed for ObRb

For “leptin receptor, long form (ObRb) (from UniProt P48357-1 22-1165)”, the binding was “no binding”.
